Values from PubChem BioAssay AID504791 (Drosophila RNAi Screening Center, 2011)
In all, the deposit lists about 23,000 reagents; below is a random part of those that have a named target and a result. In the full data, 199 (0.86%) were called active. 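Plate-scaled ratios behind the calls are not deposited; printed light signals are raw; many rows marked increased or decreased are still called inactive.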 A number with no mark means an inactive call. The numbers tell different reagents against one gene apart. Names joined by + are all predicted targets of the reagent. Not stated in the record: the direction of the score.

- Assay: 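Genes whose knock-down strengthens or weakens small-RNA reporter silencing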 (primary screen)
- Cell system: Drosophila S2-derived reporter cells
- Knock-down reagent: long dsRNA against Drosophila genes, about 150-250 ng dsRNA per well (siRNA assay); about 80-120 ng (miRNA assay)
- Duration: about 5 days (siRNA assay); about 4 days (miRNA assay)
- Treatment: copper sulfate induction of reporters: 25 µM (siRNA assay); 200 mM stated (miRNA assay), 1-2 days before reading
- Detection: 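Per-well ratio of Renilla over firefly light, expressed relative to that plate's average ratio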
- Hit rule: 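First-pass picks had plate-scaled ratios over 1.5 for the siRNA assay, over 1.6 for the miRNA assay, or under 0.6; two distinct dsRNAs had to score alike on retest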

predicted target	dsRNA no.	stable assay Renilla, run 1 (luminescence)	stable assay firefly, run 1 (luminescence)
CG14218	1	4539	3.17e5
Ziz (Zizimin)	1	6614	3.77e5
Ziz (Zizimin)	2	9901	5.91e5
Tom (Twin of m4)	1	10690	4.27e5
VhaAC45RP (VhaAC45-related protein)	1	3704	3.31e5
Trpm (Transient receptor potential cation channel, subfamily M)	1	10919	5.68e5
Trpm (Transient receptor potential cation channel, subfamily M)	2	10010	4.83e5
CG18473	1	6659	5.54e5
Rpp25 (Ribonuclease P/MRP subunit p25)	1	7004	4.52e5
Uch-L5 (Ubiquitin carboxy-terminal hydrolase L5)	1	8027	4.38e5
CG13995	1	2863	3.37e5
CG13995	2	6443	3.68e5
CG13995	3	3244	3.21e5
EndoGI (Endonuclease G inhibitor)	1	6343	2.97e5
CG10991 (retired record)	1	7678	3.69e5
CG6067	1	5660	2.76e5
CG15475	1	9161	4.71e5
CG11693	1	7570	4.04e5
nAChRalpha4 (nicotinic Acetylcholine Receptor alpha4)	1	5803	5.03e5
Rlip (Ral interacting protein)	1	7322	3.31e5
CAH14 (Carbonic anhydrase 14)	1	6299	3.34e5
CAH14 (Carbonic anhydrase 14)	2	8995	5.06e5
RhoGAP18B (Rho GTPase activating protein at 18B)	1	6463	3.63e5
RhoGAP18B (Rho GTPase activating protein at 18B)	2	5671	3.75e5
RhoGAP18B (Rho GTPase activating protein at 18B)	3	6462	3.55e5
RhoGAP18B (Rho GTPase activating protein at 18B)	4	5658	3.59e5
Gr59f (Gustatory receptor 59f)	1	6619	3.77e5
TwdlX (TweedleX)	1	4271	3.73e5
Np (Notopleural)	1	7166	4.28e5
Np (Notopleural)	2	6426	4.49e5
Np (Notopleural)	3	3544	3.15e5
CG1663	1	5822	3.47e5
CG1663	2	3251	2.83e5
CG9313	1	58161	1.51e6
CG17625	1	7018	3.27e5

Ordered by “stable assay Renilla, run 1 (luminescence)” (high to low): 3 of the entries above
predicted target	dsRNA no.	stable assay Renilla, run 1 (luminescence)	stable assay firefly, run 1 (luminescence)
CG1663	1	5822	3.47e5
Np (Notopleural)	3	3544	3.15e5
CG1663	2	3251	2.83e5

More results follow.
predicted target	dsRNA no.	stable assay Renilla, run 1 (luminescence)	stable assay firefly, run 1 (luminescence)
CG33454	1	2300	2.79e5
CG32024	1	9049	5.50e5
drm (drumstick)	1	7934	4.44e5
CG30289	1	4807	2.91e5
CG13836 (retired record)	1	6843	2.93e5
CG12194	1	9577	5.75e5
CG34032 (retired record)	1	6168	4.88e5
robl (roadblock)	1	7432	4.67e5
IFT52 (Intraflagellar transport 52)	1	7847	4.38e5
CG8834	1	5539	2.95e5
CG6126	1	9111	4.07e5
Actbeta (Activin-beta)	1	5467	2.73e5
Actbeta (Activin-beta)	2	5672	3.22e5
CG42394 + CG6567	1	5398	3.97e5
TyrRS-m (Tyrosyl-tRNA synthetase, mitochondrial)	1	50495	2.13e6
Tpl94D (Transition protein-like 94D)	1	3507	3.62e5
EbpIII (Ejaculatory bulb protein III)	1	10009	4.87e5
tfc (triforce)	1	6547	4.97e5
tfc (triforce)	2	5016	3.08e5
tfc (triforce)	3	10690	3.31e5
tfc (triforce)	4	8181	5.17e5
APP-BP1 (beta-Amyloid precursor protein binding protein 1)	1	6064	3.53e5
